Data published in the supplement of paper PMC10849652.
Some of the results follow.

Protein sequences, listed by entry. Tags and fused reporters are not part of them. Lines headed by an entry give the natural chain unless they say otherwise; changes in a name come on top.
UniProt Q7Z5L9: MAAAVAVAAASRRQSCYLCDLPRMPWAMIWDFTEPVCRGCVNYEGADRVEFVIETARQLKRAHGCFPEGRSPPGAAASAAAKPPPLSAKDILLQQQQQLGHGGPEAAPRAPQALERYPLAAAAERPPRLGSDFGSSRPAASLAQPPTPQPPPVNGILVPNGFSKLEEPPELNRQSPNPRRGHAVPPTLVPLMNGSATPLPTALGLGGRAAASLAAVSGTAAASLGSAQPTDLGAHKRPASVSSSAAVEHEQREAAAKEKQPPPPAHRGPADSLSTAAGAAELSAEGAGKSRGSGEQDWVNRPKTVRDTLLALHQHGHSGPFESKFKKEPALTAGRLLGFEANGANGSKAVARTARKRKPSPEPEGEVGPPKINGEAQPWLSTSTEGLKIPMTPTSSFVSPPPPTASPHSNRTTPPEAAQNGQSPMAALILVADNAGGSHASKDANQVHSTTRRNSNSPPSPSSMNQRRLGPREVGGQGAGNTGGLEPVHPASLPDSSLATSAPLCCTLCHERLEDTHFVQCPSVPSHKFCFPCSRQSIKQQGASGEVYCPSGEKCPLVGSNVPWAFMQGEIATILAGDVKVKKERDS
UniProt Q9H0H0, whole entry, looked up: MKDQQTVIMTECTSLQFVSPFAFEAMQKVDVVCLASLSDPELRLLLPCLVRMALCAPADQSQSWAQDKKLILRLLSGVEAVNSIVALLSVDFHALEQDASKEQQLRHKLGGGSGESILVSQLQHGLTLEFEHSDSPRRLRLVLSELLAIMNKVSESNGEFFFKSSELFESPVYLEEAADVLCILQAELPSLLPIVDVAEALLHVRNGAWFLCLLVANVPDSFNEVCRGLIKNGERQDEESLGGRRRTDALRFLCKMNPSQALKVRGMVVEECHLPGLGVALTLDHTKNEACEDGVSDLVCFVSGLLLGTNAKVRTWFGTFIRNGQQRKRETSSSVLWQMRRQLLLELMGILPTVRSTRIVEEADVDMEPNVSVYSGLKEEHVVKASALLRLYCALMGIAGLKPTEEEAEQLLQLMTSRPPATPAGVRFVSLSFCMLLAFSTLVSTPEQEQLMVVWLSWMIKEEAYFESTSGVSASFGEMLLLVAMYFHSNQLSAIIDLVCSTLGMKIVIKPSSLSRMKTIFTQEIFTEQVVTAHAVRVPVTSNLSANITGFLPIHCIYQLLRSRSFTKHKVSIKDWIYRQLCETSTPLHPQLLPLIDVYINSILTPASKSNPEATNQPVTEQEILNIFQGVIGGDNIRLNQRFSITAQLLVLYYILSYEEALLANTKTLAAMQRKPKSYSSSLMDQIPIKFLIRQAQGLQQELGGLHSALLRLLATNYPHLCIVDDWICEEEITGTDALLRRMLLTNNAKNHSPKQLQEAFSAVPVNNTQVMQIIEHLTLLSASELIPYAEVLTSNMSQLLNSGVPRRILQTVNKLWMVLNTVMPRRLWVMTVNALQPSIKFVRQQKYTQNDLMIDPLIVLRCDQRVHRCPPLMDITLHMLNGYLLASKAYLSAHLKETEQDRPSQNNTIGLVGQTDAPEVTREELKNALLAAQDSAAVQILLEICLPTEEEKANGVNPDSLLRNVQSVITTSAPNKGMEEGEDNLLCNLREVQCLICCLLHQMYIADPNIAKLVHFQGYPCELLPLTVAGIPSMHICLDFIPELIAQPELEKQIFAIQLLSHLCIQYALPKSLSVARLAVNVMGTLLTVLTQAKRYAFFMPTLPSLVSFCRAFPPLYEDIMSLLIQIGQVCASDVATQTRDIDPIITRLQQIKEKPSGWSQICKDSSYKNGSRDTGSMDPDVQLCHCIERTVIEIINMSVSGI
UniProt Q8N5M9: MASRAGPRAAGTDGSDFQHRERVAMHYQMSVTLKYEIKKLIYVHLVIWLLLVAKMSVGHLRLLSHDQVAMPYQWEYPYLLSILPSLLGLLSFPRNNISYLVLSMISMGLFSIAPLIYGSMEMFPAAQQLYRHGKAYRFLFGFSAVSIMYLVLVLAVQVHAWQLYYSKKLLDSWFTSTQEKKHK
UniProt Q14653: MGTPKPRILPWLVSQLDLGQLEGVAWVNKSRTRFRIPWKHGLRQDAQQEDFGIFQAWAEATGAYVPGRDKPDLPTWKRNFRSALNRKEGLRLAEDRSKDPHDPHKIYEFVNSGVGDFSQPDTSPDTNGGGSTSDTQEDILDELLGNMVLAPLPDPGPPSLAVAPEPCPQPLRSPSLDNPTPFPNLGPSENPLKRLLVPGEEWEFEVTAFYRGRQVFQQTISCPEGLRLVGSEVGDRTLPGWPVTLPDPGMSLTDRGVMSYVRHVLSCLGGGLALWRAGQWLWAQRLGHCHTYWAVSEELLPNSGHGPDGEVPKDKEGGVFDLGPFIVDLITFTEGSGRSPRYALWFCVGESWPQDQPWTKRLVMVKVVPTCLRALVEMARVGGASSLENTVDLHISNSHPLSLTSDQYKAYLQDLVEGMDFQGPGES
UniProt Q75QN2, whole entry, looked up: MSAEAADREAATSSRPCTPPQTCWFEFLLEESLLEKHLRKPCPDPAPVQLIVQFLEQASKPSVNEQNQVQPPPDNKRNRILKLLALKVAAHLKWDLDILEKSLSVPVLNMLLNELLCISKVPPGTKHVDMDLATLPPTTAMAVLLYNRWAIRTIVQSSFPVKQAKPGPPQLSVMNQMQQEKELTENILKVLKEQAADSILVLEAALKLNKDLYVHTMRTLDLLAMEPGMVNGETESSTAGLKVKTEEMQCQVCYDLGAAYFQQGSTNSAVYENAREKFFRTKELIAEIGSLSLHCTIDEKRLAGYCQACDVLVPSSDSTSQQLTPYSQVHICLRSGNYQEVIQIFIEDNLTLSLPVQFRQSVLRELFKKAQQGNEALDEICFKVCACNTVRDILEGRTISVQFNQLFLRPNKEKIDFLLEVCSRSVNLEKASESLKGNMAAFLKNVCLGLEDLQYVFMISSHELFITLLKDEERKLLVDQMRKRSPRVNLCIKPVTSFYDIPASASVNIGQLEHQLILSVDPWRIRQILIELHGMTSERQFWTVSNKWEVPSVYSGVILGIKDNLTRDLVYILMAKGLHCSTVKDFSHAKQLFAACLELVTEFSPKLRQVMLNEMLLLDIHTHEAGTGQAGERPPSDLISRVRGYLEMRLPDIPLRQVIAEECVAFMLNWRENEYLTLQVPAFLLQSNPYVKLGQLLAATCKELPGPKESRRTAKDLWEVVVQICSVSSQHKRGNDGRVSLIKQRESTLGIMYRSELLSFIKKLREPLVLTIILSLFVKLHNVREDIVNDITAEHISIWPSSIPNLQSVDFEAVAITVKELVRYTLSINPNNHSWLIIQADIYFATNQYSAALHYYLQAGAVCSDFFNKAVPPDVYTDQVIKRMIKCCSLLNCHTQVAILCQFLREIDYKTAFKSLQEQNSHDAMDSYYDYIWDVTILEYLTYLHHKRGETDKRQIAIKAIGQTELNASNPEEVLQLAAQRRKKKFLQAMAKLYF
UniProt Q86U28: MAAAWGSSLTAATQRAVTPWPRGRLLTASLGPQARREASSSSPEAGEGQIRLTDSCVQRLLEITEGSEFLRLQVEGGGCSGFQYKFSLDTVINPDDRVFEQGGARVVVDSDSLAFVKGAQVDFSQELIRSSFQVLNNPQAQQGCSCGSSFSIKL
UniProt P38570: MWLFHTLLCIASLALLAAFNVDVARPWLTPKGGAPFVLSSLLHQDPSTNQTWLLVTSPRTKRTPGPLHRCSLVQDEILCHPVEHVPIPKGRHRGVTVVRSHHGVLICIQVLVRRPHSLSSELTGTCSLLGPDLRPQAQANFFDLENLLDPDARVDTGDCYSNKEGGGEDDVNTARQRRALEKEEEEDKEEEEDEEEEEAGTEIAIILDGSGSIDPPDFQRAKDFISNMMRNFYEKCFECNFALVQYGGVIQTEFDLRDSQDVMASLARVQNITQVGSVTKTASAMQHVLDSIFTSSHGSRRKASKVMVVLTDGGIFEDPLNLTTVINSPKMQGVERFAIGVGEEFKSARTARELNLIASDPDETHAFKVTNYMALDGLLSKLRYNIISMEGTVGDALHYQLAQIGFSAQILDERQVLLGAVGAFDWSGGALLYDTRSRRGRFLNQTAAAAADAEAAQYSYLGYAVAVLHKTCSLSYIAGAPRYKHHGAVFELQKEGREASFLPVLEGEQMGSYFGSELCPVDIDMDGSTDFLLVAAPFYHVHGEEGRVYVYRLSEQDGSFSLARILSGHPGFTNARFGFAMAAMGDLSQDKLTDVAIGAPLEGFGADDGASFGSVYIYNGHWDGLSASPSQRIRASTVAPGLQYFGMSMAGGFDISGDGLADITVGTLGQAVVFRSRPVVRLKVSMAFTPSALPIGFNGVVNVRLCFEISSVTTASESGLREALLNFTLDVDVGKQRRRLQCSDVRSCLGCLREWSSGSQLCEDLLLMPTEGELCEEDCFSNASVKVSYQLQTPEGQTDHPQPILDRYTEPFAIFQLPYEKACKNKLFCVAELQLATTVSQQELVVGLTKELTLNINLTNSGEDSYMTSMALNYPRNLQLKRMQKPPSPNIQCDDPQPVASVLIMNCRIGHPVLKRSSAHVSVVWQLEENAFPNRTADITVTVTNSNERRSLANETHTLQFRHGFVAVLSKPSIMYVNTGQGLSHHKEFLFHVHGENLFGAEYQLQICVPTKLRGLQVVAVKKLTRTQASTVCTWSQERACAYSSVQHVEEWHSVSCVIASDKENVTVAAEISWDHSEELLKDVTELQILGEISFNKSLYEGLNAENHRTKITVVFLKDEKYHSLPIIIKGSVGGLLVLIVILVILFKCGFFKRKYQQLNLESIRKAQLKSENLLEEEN
UniProt Q9UI26: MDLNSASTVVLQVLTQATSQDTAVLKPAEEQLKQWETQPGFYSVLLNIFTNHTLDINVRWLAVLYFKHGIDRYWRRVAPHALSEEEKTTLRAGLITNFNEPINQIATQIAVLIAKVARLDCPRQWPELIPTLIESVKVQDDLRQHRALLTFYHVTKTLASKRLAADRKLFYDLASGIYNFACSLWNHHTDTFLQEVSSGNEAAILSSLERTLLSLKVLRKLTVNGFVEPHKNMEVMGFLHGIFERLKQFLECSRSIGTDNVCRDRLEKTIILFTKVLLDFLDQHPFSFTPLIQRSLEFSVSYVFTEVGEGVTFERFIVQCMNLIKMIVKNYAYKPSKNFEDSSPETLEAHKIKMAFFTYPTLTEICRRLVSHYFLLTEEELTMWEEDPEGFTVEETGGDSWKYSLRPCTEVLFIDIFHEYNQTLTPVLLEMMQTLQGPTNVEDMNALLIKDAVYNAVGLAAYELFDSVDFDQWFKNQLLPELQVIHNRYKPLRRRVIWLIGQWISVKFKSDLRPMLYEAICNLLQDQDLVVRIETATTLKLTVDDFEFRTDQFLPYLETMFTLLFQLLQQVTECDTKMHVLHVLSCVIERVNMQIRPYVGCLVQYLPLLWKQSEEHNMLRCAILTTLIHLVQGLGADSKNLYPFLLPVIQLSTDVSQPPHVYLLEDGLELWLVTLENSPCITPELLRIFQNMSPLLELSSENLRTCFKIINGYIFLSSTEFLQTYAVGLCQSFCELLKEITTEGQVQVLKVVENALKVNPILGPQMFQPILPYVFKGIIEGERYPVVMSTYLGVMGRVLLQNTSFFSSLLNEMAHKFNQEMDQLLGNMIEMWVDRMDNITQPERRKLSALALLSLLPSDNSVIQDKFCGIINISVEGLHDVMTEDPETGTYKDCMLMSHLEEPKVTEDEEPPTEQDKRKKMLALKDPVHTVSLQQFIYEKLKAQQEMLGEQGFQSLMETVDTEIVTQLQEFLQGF
UniProt Q9BW62: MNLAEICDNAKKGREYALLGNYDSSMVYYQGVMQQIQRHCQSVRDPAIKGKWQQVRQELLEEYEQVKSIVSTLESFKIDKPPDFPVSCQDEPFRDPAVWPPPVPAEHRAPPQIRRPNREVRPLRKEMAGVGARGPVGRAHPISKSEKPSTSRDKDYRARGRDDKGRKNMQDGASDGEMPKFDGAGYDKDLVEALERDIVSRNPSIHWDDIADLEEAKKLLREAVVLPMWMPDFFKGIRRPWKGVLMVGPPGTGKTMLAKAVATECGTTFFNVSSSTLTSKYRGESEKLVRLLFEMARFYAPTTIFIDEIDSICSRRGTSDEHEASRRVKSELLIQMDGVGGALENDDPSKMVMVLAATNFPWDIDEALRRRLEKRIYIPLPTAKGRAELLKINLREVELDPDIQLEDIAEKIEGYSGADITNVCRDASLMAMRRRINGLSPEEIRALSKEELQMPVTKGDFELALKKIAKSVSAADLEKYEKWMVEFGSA
UniProt Q9ULR0: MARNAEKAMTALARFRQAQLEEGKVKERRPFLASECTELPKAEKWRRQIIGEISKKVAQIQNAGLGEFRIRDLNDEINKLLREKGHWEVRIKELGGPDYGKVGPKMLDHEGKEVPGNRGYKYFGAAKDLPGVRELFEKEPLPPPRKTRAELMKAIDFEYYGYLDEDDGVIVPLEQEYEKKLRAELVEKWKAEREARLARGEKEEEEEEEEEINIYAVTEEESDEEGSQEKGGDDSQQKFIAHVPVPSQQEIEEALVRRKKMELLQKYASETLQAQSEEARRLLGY

Columns and labels:
Assay in all cases: log2 fold change, soluble protein after heating vs DMSO (PISA); higher = thermal stabilisation; K562 lysate, 10 uM; active = over 0.2 and 3.5 SD of the protein, either way, in both replicates (recomputed)
vemurafenib = compound: CCCS(=O)(=O)Nc1ccc(F)c(C(=O)c2c[nH]c3ncc(-c4ccc(Cl)cc4)cc23)c1F [vemurafenib]
Procedure, shortened: (§1)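 Values give the log-two fold change in thermal stability against solvent controls, from duplicates. Crude K562 extract at 1 mg/mL protein, made by dounce homogenisation in PBS pH 7.4 with 1 mM MgCl2, was treated with 10 μM compound for 30 min. After 3 min heating across 48°C-58°C, aliquots were pooled, adjusted to 0.5% NP-40 at 4°C and centrifuged at 21,000xg for 90 min. The supernatant was measured by TMTpro 16plex LC-MS/MS with channel sums equalised.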

[1] = compound: CCCS(=O)(=O)Nc1ccc(F)c(C(=O)c2c[nH]c3ncc(Cl)cc23)c1F
Procedure, shortened: as §1

barasertib = compound: CCN(CCCOc1ccc2c(Nc3cc(CC(=O)Nc4cccc(F)c4)[nH]n3)ncnc2c1)CCOP(=O)(O)O [barasertib]
Procedure, shortened: as §1

[2] = compound: CC[C@@H]1C(=O)N(C)c2cnc(Nc3ccc(C(=O)NC4CCN(C)CC4)cc3OC)nc2N1C1CCCC1
Procedure, shortened: as §1

volasertib = compound: CC[C@@H]1C(=O)N(C)c2cnc(Nc3ccc(C(=O)N[C@H]4CC[C@H](N5CCN(CC6CC6)CC5)CC4)cc3OC)nc2N1C(C)C [volasertib]
Procedure, shortened: as §1

[3] = compound: CCn1c(C(=O)N(C2CC2)C2CC2)cc2c3c(ncn3C)c(Nc3cc(C)n(C)n3)nc21
Procedure, shortened: as §1

[4] = compound: CCn1cc(-c2ccnc3[nH]c(-c4cccc(CN(C)C)c4)cc23)c(-c2ccc(NC(=O)N(C)C)cc2)n1
Procedure, shortened: as §1

[5] = compound: CN1CCC(CNc2ccc3ncc(-c4cccc(OC(F)(F)F)c4)n3n2)CC1
Procedure, shortened: as §1

saracatinib = compound: CN1CCN(CCOc2cc(OC3CCOCC3)c3c(Nc4c(Cl)ccc5c4OCO5)ncnc3c2)CC1 [saracatinib]
Procedure, shortened: as §1

sotrastaurin = compound: CN1CCN(c2nc(C3=C(c4c[nH]c5ccccc45)C(=O)NC3=O)c3ccccc3n2)CC1 [sotrastaurin]
Procedure, shortened: as §1

Measured: log2 fold change

IRF2BP2 (UniProt Q7Z5L9)
inactive: vemurafenib -0.003 | [1] 0.024 | barasertib -0.023 | [2] 0.077 | volasertib 0.001 | [3] -0.01 | [4] 0.018 | [5] 0.067 | saracatinib 0.044 | sotrastaurin -0.004

INTS9 (UniProt Q9NV88)
inactive: vemurafenib 0.01 | [1] 0.02 | barasertib -0.033 | [2] -0.001 | volasertib 0.01 | [3] 0.004 | [4] -0.142 | [5] 0.072 | saracatinib -0.007 | sotrastaurin 0.013

ITCH (UniProt Q96J02)
inactive: vemurafenib 0.025 | [1] 0.027 | barasertib -0.009 | [2] -0.082 | volasertib -0.023 | [3] 0.008 | [4] -0.083 | [5] 0.018 | saracatinib 0.029 | sotrastaurin 0.083

INTS2 (UniProt Q9H0H0)
inactive: vemurafenib -0.084 | [1] 0.081 | barasertib 0.043 | [2] -0.071 | volasertib -0.105 | [3] 0.028 | [4] 0.075 | [5] -0.034 | saracatinib -0.046 | sotrastaurin 0.042

KCTD5 (UniProt Q9NXV2)
inactive: vemurafenib 0.012 | [1] 0.03 | barasertib 0.005 | [2] 0.08 | volasertib -0.007 | [3] 0.023 | [4] -0.049 | [5] 0.033 | saracatinib 0.01 | sotrastaurin -0.045

IVNS1ABP (UniProt Q9Y6Y0)
inactive: vemurafenib -0.016 | [1] 0.008 | barasertib 0.088 | [2] -0.033 | volasertib -0.058 | [3] 0.021 | [4] -0.01 | [5] 0.011 | saracatinib -0.011 | sotrastaurin 0.009

KCTD10 (UniProt Q9H3F6)
inactive: vemurafenib 0.062 | [1] -0.02 | barasertib 0.082 | [2] -0.007 | volasertib 0.004 | [3] -0.029 | [4] 0.193 | [5] -0.055 | saracatinib 0.012 | sotrastaurin -0.027

JAGN1 (UniProt Q8N5M9)
inactive: vemurafenib 0.018 | [1] -0.001 | barasertib 0 | [2] -0.031 | volasertib 0.087 | [3] -0.035 | [4] 0.015 | [5] 0.042 | saracatinib 0.077 | sotrastaurin -0.108

IRF3 (UniProt Q14653)
inactive: vemurafenib 0.03 | [1] 0.023 | barasertib 0.02 | [2] -0.051 | volasertib -0.018 | [3] -0.002 | [4] -0.007 | [5] 0.014 | saracatinib -0.006 | sotrastaurin 0

IRAK4 (UniProt Q9NWZ3)
inactive: vemurafenib -0.028 | [1] -0.005 | barasertib 0.107 | [2] -0.085 | volasertib -0.022 | [3] 0.063 | [4] 0.001 | [5] 0.19 | saracatinib 0.045 | sotrastaurin -0.022

ITSN1 isoform 8 (UniProt Q15811)
inactive: vemurafenib -0.002 | [1] -0.012 | barasertib 0.013 | [2] 0.105 | volasertib 0.035 | [3] 0.064 | [4] 0.037 | [5] -0.044 | saracatinib 0.013 | sotrastaurin -0.021

ITPA (UniProt Q9BY32)
inactive: vemurafenib 0.057 | [1] 0.013 | barasertib 0.004 | [2] 0 | volasertib -0.01 | [3] -0.022 | [4] -0.038 | [5] 0.08 | saracatinib 0.005 | sotrastaurin -0.05

INTS8 (UniProt Q75QN2)
inactive: vemurafenib 0.016 | [1] 0.02 | barasertib -0.131 | [2] -0.024 | volasertib -0.061 | [3] 0.041 | [4] -0.075 | [5] 0.037 | saracatinib 0.09 | sotrastaurin 0.084

KATNA1 (UniProt O75449)
inactive: vemurafenib 0.091 | [1] -0.002 | barasertib 0.033 | [2] 0.019 | volasertib -0.03 | [3] 0.007 | [4] 0.069 | [5] -0.077 | saracatinib -0.012 | sotrastaurin 0.049

ISCA2 (UniProt Q86U28)
inactive: vemurafenib -0.171 | [1] 0.03 | barasertib 0.091 | [2] -0.013 | volasertib -0.015 | [3] 0.011 | [4] -0.079 | [5] -0.014 | saracatinib -0.018 | sotrastaurin -0.009

IRF2 (UniProt P14316)
inactive: vemurafenib -0.024 | [1] 0.057 | barasertib -0.051 | [2] 0.057 | volasertib 0.011 | [3] 0.038 | [4] 0.019 | [5] 0.053 | saracatinib -0.086 | sotrastaurin 0.086

IQGAP1 (UniProt P46940)
inactive: vemurafenib -0.035 | [1] -0.005 | barasertib 0.002 | [2] 0.002 | volasertib -0.023 | [3] 0.004 | [4] -0.014 | [5] -0.017 | saracatinib 0.015 | sotrastaurin 0.01

IPO7 (UniProt O95373)
inactive: vemurafenib -0.001 | [1] 0.005 | barasertib -0.032 | [2] 0.001 | volasertib 0.001 | [3] -0.017 | [4] -0.106 | [5] 0.097 | saracatinib 0.002 | sotrastaurin 0.005

KCMF1 (UniProt Q9P0J7)
inactive: vemurafenib -0.005 | [1] -0.012 | barasertib 0.021 | [2] 0.001 | volasertib 0.009 | [3] -0.029 | [4] -0.038 | [5] 0.035 | saracatinib 0.022 | sotrastaurin 0.001

ITGAE (UniProt P38570)
inactive: vemurafenib 0.108 | [1] -0.064 | barasertib -0.051 | [2] 0.166 | volasertib 0.051 | [3] -0.087 | [4] -0.533 | [5] 0.077

Quoted from the listing (seven entries):
KATNA1 (UniProt O75449)
inactive: vemurafenib 0.091 | [1] -0.002 | barasertib 0.033 | [2] 0.019 | volasertib -0.03 | [3] 0.007 | [4] 0.069 | [5] -0.077 | saracatinib -0.012 | sotrastaurin 0.049

ISCA2 (UniProt Q86U28)
inactive: vemurafenib -0.171 | [1] 0.03 | barasertib 0.091 | [2] -0.013 | volasertib -0.015 | [3] 0.011 | [4] -0.079 | [5] -0.014 | saracatinib -0.018 | sotrastaurin -0.009

IRF2 (UniProt P14316)
inactive: vemurafenib -0.024 | [1] 0.057 | barasertib -0.051 | [2] 0.057 | volasertib 0.011 | [3] 0.038 | [4] 0.019 | [5] 0.053 | saracatinib -0.086 | sotrastaurin 0.086

IQGAP1 (UniProt P46940)
inactive: vemurafenib -0.035 | [1] -0.005 | barasertib 0.002 | [2] 0.002 | volasertib -0.023 | [3] 0.004 | [4] -0.014 | [5] -0.017 | saracatinib 0.015 | sotrastaurin 0.01

IPO7 (UniProt O95373)
inactive: vemurafenib -0.001 | [1] 0.005 | barasertib -0.032 | [2] 0.001 | volasertib 0.001 | [3] -0.017 | [4] -0.106 | [5] 0.097 | saracatinib 0.002 | sotrastaurin 0.005

KCMF1 (UniProt Q9P0J7)
inactive: vemurafenib -0.005 | [1] -0.012 | barasertib 0.021 | [2] 0.001 | volasertib 0.009 | [3] -0.029 | [4] -0.038 | [5] 0.035 | saracatinib 0.022 | sotrastaurin 0.001

ITGAE (UniProt P38570)
inactive: vemurafenib 0.108 | [1] -0.064 | barasertib -0.051 | [2] 0.166 | volasertib 0.051 | [3] -0.087 | [4] -0.533 | [5] 0.077

The listing continues.

IREB2 (UniProt P48200)
inactive: vemurafenib 0.006 | [1] 0.012 | barasertib -0.003 | [2] 0.013 | volasertib -0.072 | [3] -0.007 | [4] -0.022 | [5] -0.014 | saracatinib 0.003 | sotrastaurin 0.011

KDM1A (UniProt O60341)
inactive: vemurafenib 0.021 | [1] 0.004 | barasertib 0.014 | [2] -0.011 | volasertib -0.046 | [3] -0.011 | [4] -0.065 | [5] -0.016 | saracatinib -0.001 | sotrastaurin 0.005

IQSEC1 (UniProt Q6DN90)
inactive: vemurafenib 0.058 | [1] -0.11 | barasertib 0.005 | [2] -0.035 | volasertib -0.057 | [3] -0.017 | [4] 0.017 | [5] -0.031 | saracatinib 0 | sotrastaurin 0.021

IPO11 isoform 2 (UniProt Q9UI26)
inactive: vemurafenib 0.015 | [1] 0.013 | barasertib -0.001 | [2] -0.031 | volasertib -0.014 | [3] -0.012 | [4] 0.001 | [5] -0.009 | saracatinib -0.013 | sotrastaurin 0.024

IRAK1 (UniProt P51617)
inactive: vemurafenib 0.086 | [1] -0.033 | barasertib -0.01 | [2] -0.089 | volasertib -0.134 | [3] 0.041 | [4] -0.135 | [5] 0.043 | saracatinib -0.016 | sotrastaurin -0.029

KATNAL1 (UniProt Q9BW62)
inactive: vemurafenib 0.054 | [1] 0.037 | barasertib 0.044 | [2] -0.117 | volasertib 0.024 | [3] -0.105 | [4] 0.084 | [5] -0.135 | saracatinib 0.013 | sotrastaurin 0.04

ITSN2 (UniProt Q9NZM3)
inactive: vemurafenib -0.035 | [1] -0.038 | barasertib 0.048 | [2] 0.046 | volasertib -0.072 | [3] -0.006 | [4] 0.041 | [5] -0.036 | saracatinib 0.046 | sotrastaurin -0.054

ISY1 isoform 1 (UniProt Q9ULR0)
inactive: vemurafenib -0.186 | [1] 0.034 | barasertib 0.018 | [2] 0.066 | volasertib -0.025 | [3] -0.012 | [4] -0.101 | [5] 0.02 | saracatinib 0.026 | sotrastaurin 0.032

KBTBD2 (UniProt Q8IY47)
inactive: vemurafenib -0.035 | [1] 0.006 | barasertib 0.022 | [2] -0.018 | volasertib 0.013 | [3] -0.181 | [4] -0.166 | [5] 0.06 | saracatinib 0.031 | sotrastaurin -0.03

ITGB1BP1 (UniProt O14713)
inactive: vemurafenib -0.057 | [1] 0.107 | barasertib 0.192 | [2] -0.077 | volasertib -0.108 | [3] 0.01 | [4] 0.108 | [5] 0.078 | saracatinib 0.018
